Laboratory results from ChEMBL document CHEMBL4316593 (Eur J Med Chem, 2019).
The source gives many values for each of these; only a part stands here.

How the values were obtained:
Type in all cases: cell-based
Details in all cases: U-87MG ATCC
[1] = Inhibition of RTK/PI3K/AKT/mTOR signaling in human U87 cells assessed as down regulation of KLF6 gene expression at cytotoxic IC50 measured after 48 hrs relative to control
[2] = Inhibition of RTK/PI3K/AKT/mTOR signaling in human U87 cells assessed as down regulation of SP2 gene expression at cytotoxic IC50 measured after 48 hrs relative to control
[3] = Inhibition of RTK/PI3K/AKT/mTOR signaling in human U87 cells assessed as down regulation of UBR7 gene expression at cytotoxic IC50 measured after 48 hrs relative to control
[4] = Inhibition of RTK/PI3K/AKT/mTOR signaling in human U87 cells assessed as down regulation of EFR3B gene expression at cytotoxic IC50 measured after 48 hrs relative to control
[5] = Inhibition of RTK/PI3K/AKT/mTOR signaling in human U87 cells assessed as up regulation of squalene epoxidase gene expression at cytotoxic IC50 measured after 48 hrs relative to control
[6] = Inhibition of RTK/PI3K/AKT/mTOR signaling in human U87 cells assessed as down regulation of CYTH2 gene expression at cytotoxic IC50 measured after 48 hrs relative to control
[7] = Inhibition of RTK/PI3K/AKT/mTOR signaling in human U87 cells assessed as down regulation of KLHL20 gene expression at cytotoxic IC50 measured after 48 hrs relative to control
[8] = Inhibition of RTK/PI3K/AKT/mTOR signaling in human U87 cells assessed as down regulation of SH3TC1 gene expression at cytotoxic IC50 measured after 48 hrs relative to control
[9] = Inhibition of RTK/PI3K/AKT/mTOR signaling in human U87 cells assessed as up regulation of EMI domain containing 1 gene expression at cytotoxic IC50 measured after 48 hrs relative to control
[10] = Inhibition of RTK/PI3K/AKT/mTOR signaling in human U87 cells assessed as down regulation of ALYREF gene expression at cytotoxic IC50 measured after 48 hrs relative to control
[11] = Inhibition of RTK/PI3K/AKT/mTOR signaling in human U87 cells assessed as up regulation of mindbomb E3 ubiquitin protein ligase 2 gene expression at cytotoxic IC50 measured after 48 hrs relative to control
[12] = Inhibition of RTK/PI3K/AKT/mTOR signaling in human U87 cells assessed as up regulation of PCDH7 gene expression at cytotoxic IC50 measured after 48 hrs relative to control
[13] = Inhibition of RTK/PI3K/AKT/mTOR signaling in human U87 cells assessed as down regulation of INTS12 gene expression at cytotoxic IC50 measured after 48 hrs relative to control
[14] = Inhibition of RTK/PI3K/AKT/mTOR signaling in human U87 cells assessed as down regulation of UBB gene expression at cytotoxic IC50 measured after 48 hrs relative to control
[15] = Inhibition of RTK/PI3K/AKT/mTOR signaling in human U87 cells assessed as down regulation of LPIN1 gene expression at cytotoxic IC50 measured after 48 hrs relative to control
[16] = Inhibition of RTK/PI3K/AKT/mTOR signaling in human U87 cells assessed as down regulation of RUBCN gene expression at cytotoxic IC50 measured after 48 hrs relative to control
[17] = Inhibition of RTK/PI3K/AKT/mTOR signaling in human U87 cells assessed as down regulation of ST7 gene expression at cytotoxic IC50 measured after 48 hrs relative to control
[18] = Inhibition of RTK/PI3K/AKT/mTOR signaling in human U87 cells assessed as down regulation of EIF1AD gene expression at cytotoxic IC50 measured after 48 hrs relative to control
[19] = Inhibition of RTK/PI3K/AKT/mTOR signaling in human U87 cells assessed as up regulation of RPL27A gene expression at cytotoxic IC50 measured after 48 hrs relative to control
[20] = Inhibition of RTK/PI3K/AKT/mTOR signaling in human U87 cells assessed as down regulation of SUPT5H gene expression at cytotoxic IC50 measured after 48 hrs relative to control
[21] = Inhibition of RTK/PI3K/AKT/mTOR signaling in human U87 cells assessed as down regulation of MAP2K3 gene expression at cytotoxic IC50 measured after 48 hrs relative to control
[22] = Inhibition of RTK/PI3K/AKT/mTOR signaling in human U87 cells assessed as down regulation of ZNF81 gene expression at cytotoxic IC50 measured after 48 hrs relative to control
[23] = Inhibition of RTK/PI3K/AKT/mTOR signaling in human U87 cells assessed as up regulation of CALCOCO1 gene expression at cytotoxic IC50 measured after 48 hrs relative to control
[24] = Inhibition of RTK/PI3K/AKT/mTOR signaling in human U87 cells assessed as down regulation of THBS1 gene expression at cytotoxic IC50 measured after 48 hrs relative to control
[25] = Inhibition of RTK/PI3K/AKT/mTOR signaling in human U87 cells assessed as up regulation of C2CD4C gene expression at cytotoxic IC50 measured after 48 hrs relative to control
[26] = Inhibition of RTK/PI3K/AKT/mTOR signaling in human U87 cells assessed as down regulation of BTG1 gene expression at cytotoxic IC50 measured after 48 hrs relative to control
[27] = Inhibition of RTK/PI3K/AKT/mTOR signaling in human U87 cells assessed as down regulation of SLU7 gene expression at cytotoxic IC50 measured after 48 hrs relative to control
[28] = Inhibition of RTK/PI3K/AKT/mTOR signaling in human U87 cells assessed as down regulation of EIF2AK2 gene expression at cytotoxic IC50 measured after 48 hrs relative to control
[29] = Inhibition of RTK/PI3K/AKT/mTOR signaling in human U87 cells assessed as down regulation of COX6A1 gene expression at cytotoxic IC50 measured after 48 hrs relative to control
[30] = Inhibition of RTK/PI3K/AKT/mTOR signaling in human U87 cells assessed as down regulation of GBF1 gene expression at cytotoxic IC50 measured after 48 hrs relative to control
[31] = Inhibition of RTK/PI3K/AKT/mTOR signaling in human U87 cells assessed as down regulation of LSG1 gene expression at cytotoxic IC50 measured after 48 hrs relative to control
[32] = Inhibition of RTK/PI3K/AKT/mTOR signaling in human U87 cells assessed as down regulation of TAX1BP1 gene expression at cytotoxic IC50 measured after 48 hrs relative to control
[33] = Inhibition of RTK/PI3K/AKT/mTOR signaling in human U87 cells assessed as up regulation of SEMA3A gene expression at cytotoxic IC50 measured after 48 hrs relative to control

## CC(=O)C(=NNc1ccccc1C#N)C(C)=O
[1]
  log2FC: -0.872
[2]
  log2FC: -0.737
[3]
  log2FC: -1.27
[4]
  log2FC: -2.81
[5]
  log2FC: 0.797
[6]
  log2FC: -0.507
[7]
  log2FC: -1.03
[8]
  log2FC: -1.59
[9]
  log2FC: 1.09
[10]
  log2FC: -0.6
[11]
  log2FC: 0.872
[12]
  log2FC: 2.04
[13]
  log2FC: -1.23
[14]
  log2FC: -0.639
[15]
  log2FC: -1.09
[16]
  log2FC: -1.59
[17]
  log2FC: -1.05
[18]
  log2FC: -0.523
[19]
  log2FC: 0.356
[20]
  log2FC: -0.797
[21]
  log2FC: -1.2
[22]
  log2FC: -1.89
[23]
  log2FC: 0.565
[24]
  log2FC: -1.45
[25]
  log2FC: 1.95
[26]
  log2FC: -0.512
[27]
  log2FC: -0.621
[28]
  log2FC: -0.667
[29]
  log2FC: -0.711
[30]
  log2FC: -0.76
[31]
  log2FC: -0.532
[32]
  log2FC: -0.439
[33]
  log2FC: 2.04
